# The supplement of paper PMC7858590
# ± gives the standard deviation of the averaged measurements. Whole data set: some 3,800 compounds, median “cell shape (eccentricity) Z-score vs DMSO control” near 1.1, cut for the lowest 2% near -4.7. The list shows a part of the results.
# Test system: human monocyte-derived macrophages (M0)
# Test: cell shape (eccentricity) Z-score vs DMSO control; higher = more elongated, M2-like morphology
# Conditions: 20 µM; 24 h; macrophage state: M0 (M-CSF)
row,Compound,cell shape (Z-score)
1,COc1ccc2[nH]c(S(=O)Cc3ncc(C)c(OC)c3C)nc2n1 (centres undefined),-0.433
2,CCCCn1c(=O)c2c(ncn2CC(C)=O)n(CCCC)c1=O,0.547
3,C=C(C(=O)O)[C@@H]1CC[C@@]2(C)CC(=O)C=C(C)C2C1 (some centres undefined),-1.55
4,C=CC1=C(C(=O)O)N2C(=O)[C@@H](NC(=O)/C(=N\OCC(=O)O)c3csc(N)n3)[C@H]2SC1,-0.525
5,COc1cc2nccc(Oc3ccc(NC(=O)Nc4ccc(F)cc4F)c(F)c3)c2cc1OC,8.2
6,COC(=O)C1=CO[C@@H](O[C@@H]2O[C@H](CO)[C@@H](O)[C@H](O)[C@H]2O)[C@@H]2[C@@H](C)[C@@H](OC(=O)C3=CO[C@@H](O[C@@H]4O[C@H](CO)[C@@H](O)[C@H](O)[C@H]4O)[C@@H]4[C@@H](C)[C@@H](OC(C)=O)C[C@H]34)C[C@H]12,1.7
7,CCN1CCCC1CNC(=O)c1cc(S(N)(=O)=O)ccc1OC (centres undefined),3.86
8,Cc1ccc(C(=O)NCCCCCC(=O)Nc2ccc(F)cc2N)cc1,1.52
9,C=C[C@@]1(C)C[C@H](O)[C@@H]2[C@@H](OC(O)[C@H]2C)[C@@H]1C(=C)C (some centres undefined),-1.32
10,CC(=O)Cc1cc(=O)c2c(C)cc(O)c(C3OC(CO)C(O)C(O)C3O)c2o1 (centres undefined),-4.07
11,Cn1c(=O)[nH]c2ncn(C)c2c1=O,0.0791
12,COc1c(O[C@@H]2O[C@H](CO)[C@@H](O)[C@H](O)[C@H]2O)cc2oc(-c3ccc(O)cc3)cc(=O)c2c1O,-0.116
13,CC[C@H](NC(=O)[C@H](C)NC)C(=O)N1C[C@@H](O)C[C@H]1Cc1cc(F)cc2[nH]c(-c3[nH]c4cc(F)ccc4c3C[C@@H]3C[C@H](O)CN3C(=O)[C@H](CC)NC(=O)[C@H](C)NC)cc12,0.663
14,OC(Cn1cncn1)(Cn1cncn1)c1ccc(F)cc1F,2.84
15,Cc1c[nH]c(-c2cnc(NCCNc3ccc(C#N)cn3)nc2-c2ccc(Cl)cc2Cl)n1,-4.52
16,Oc1cc2c(c(Cl)c1O)CCNC[C@@H]2c1ccccc1,-0.12
17,CN1CCC(=C2c3ccccc3C=Cc3ccccc32)CC1,0.0396
18,CCCCCCn1c(=O)c2c(ncn2C)n(C)c1=O,3.63
19,CCOC(=O)C1Cc2ccccc2CN1C(=O)c1ccc(SC)s1 (centres undefined),0.853
20,CCn1nc(C(=O)O)c(=O)c2cc3c(cc21)OCO3,1.59
21,C[C@H](O)c1nc2ccccc2c(=O)[nH]1,0.101
22,O=c1c(O)c(-c2ccc(O)cc2)oc2cc(OC3O[C@H](CO)[C@@H](O)[C@H](O)[C@H]3O)cc(O)c12 (some centres undefined),0.856
23,CC(C)(C)c1cnc(CSc2cnc(NC(=O)C3CCNCC3)s2)o1,3.31
24,CC(=O)Oc1ccccc1C(=O)Oc1ccccc1C(=O)O,4.32
25,Cc1ccc(C)c(OCCCC(C)(C)C(=O)O)c1,1.98
26,CC(=O)C(C#N)C(=O)Nc1cc(Br)ccc1Br (centres undefined),-5.16
27,CC1CC(OC(=O)c2ccccc2O)CC(C)(C)C1 (centres undefined),2.74

# Copied from the entries so far for reference:
row,Compound,cell shape (Z-score)
3,C=C(C(=O)O)[C@@H]1CC[C@@]2(C)CC(=O)C=C(C)C2C1 (some centres undefined),-1.55
4,C=CC1=C(C(=O)O)N2C(=O)[C@@H](NC(=O)/C(=N\OCC(=O)O)c3csc(N)n3)[C@H]2SC1,-0.525

# (listing goes on)

row,Compound,cell shape (Z-score)
1,CCCCN(CCCC)CCCOC(=O)c1ccc(N)cc1,-0.4
2,CC(C)CC(NC(=O)OCC1c2ccccc2-c2ccccc21)C(=O)O (centres undefined),1.09
3,CC(C)=CCc1c(O[C@@H]2O[C@H](CO)[C@@H](O)[C@H](O)[C@H]2O)cc(O)c2c1O[C@H](c1ccc(O)cc1)CC2=O,0.356
4,COc1nc(N)nc2c1ncn2[C@@H]1O[C@H](CO)[C@@H](O)[C@@H]1O,0.62 ± 1.5
5,CC(C)(Oc1ccc(C2CC2(Cl)Cl)cc1)C(=O)O (centres undefined),1.13
6,COc1ccc(-c2cc(=O)c3c(O)c(OC)c(O[C@H]4O[C@H](CO[C@@H]5O[C@@H](C)[C@H](O)[C@@H](O)[C@H]5O)[C@@H](O)[C@H](O)[C@H]4O)cc3o2)cc1,0.599
7,COC(=O)C[C@@H]1C(C(=O)O)=CO[C@@H](O[C@@H]2O[C@H](CO)[C@@H](O)[C@H](O)[C@H]2O)/C1=C\COC(=O)/C=C/c1ccccc1,-3.68
8,Nc1ncnc2c1c(COc1cccc(Cl)c1)nn2C1CCOCC1,3.86
9,C=C[C@]1(C)C[C@H](O)[C@H]2C(=C)C(=O)O[C@@H]2[C@H]1C(=C)CO,-1.59
10,Cc1cccc(Nc2ccccc2C(=O)O)c1C,4.38
11,CC(C)CC#Cc1ccc2c(c1)O[C@@H](CN(C)C(=O)c1cnccn1)[C@H](C)CN([C@H](C)CO)S2(=O)=O,2.61
12,C[C@@H]1O[C@@H](O[C@H]2[C@H](O)[C@@H](O)[C@H](O[C@H]3[C@H](O[C@H]4CC[C@@]5(C)C(=CC[C@H]6C7C[C@@H]8O[C@]9(CC[C@@](C)(CO[C@@H]%10O[C@H](CO)[C@@H](O)[C@H](O)[C@H]%10O)O9)[C@H](C)C8[C@@]7(C)CCC65)C4)O[C@H](CO)[C@@H](O)[C@@H]3O)O[C@@H]2CO)[C@H](O)[C@H](O)[C@H]1O (some centres undefined),-1.72
13,COc1cc2c(Nc3ccc(NC(=O)c4ccccc4)cc3)ncnc2cc1OCCCN1CCOCC1,-0.0726
14,Cc1cc(C)c(S(=O)(=O)Nc2ccccc2C(F)(F)F)c(C)c1,1.77
15,N[C@H](CSCCB(O)O)C(=O)O,4.09
16,C(=C\N1CCN(C(c2ccccc2)c2ccccc2)CC1)/Cc1ccccc1,3.09
17,O=C1N=C(NS(=O)(=O)c2cccc3ccccc23)S/C1=C\c1ccc(Br)cc1,-0.239
18,O=C(CCc1ccc(O)cc1)c1ccc(O[C@@H]2O[C@H](CO)[C@H](O)[C@H](O)[C@H]2O)cc1O,2.57
19,CC(=O)OCC1=CCCC2[C@@]1(C)CC[C@@H](C)[C@]2(C)CCC(C)CC(=O)O (some centres undefined),-1.11
20,C/C=C/C=C/C(=O)O[C@@H]1C=C(CO)[C@](O)(CO)[C@@]2(C)CCCC(C)(C)[C@H]12,0.307
21,CC(C)Oc1cccc(-n2c(CCc3c[nH]c4ccc(Br)cc34)nc3ccccc3c2=O)c1,3.94
22,COc1ccc2c(c1)c(=O)oc1cc(O)ccc12,2.68
23,C[C@H]1c2cccc(O)c2C(=O)C2C(=O)[C@]3(O)C(=O)C(C(N)=O)C(=O)[C@@H](N(C)C)[C@@H]3[C@@H](O)[C@@H]21 (some centres undefined),-0.502
24,O=C(Nc1cccc(-c2cn3ccccc3n2)c1)c1cc2cccc(O)c2oc1=O,0.05
25,COC1OC(=O)C(CCC2(C)C(C)CCC3(C)C2CC(O)C(O)C32CO2)C1O (centres undefined),-2.34
26,CCCCC/C=C\C/C=C\CCCCCCCC(=O)OC(CO)CO,1.86
27,OCCOCCN1CCN(C2=Nc3ccccc3Sc3ccccc32)CC1,2.19

# Taken from above:
# For cell shape (Z-score), Cc1cc(C)c(S(=O)(=O)Nc2ccccc2C(F)(F)F)c(C)c1 reads 1.77
# For cell shape (Z-score), C(=C\N1CCN(C(c2ccccc2)c2ccccc2)CC1)/Cc1ccccc1 reads 3.09
